In patent publication US6500934B1, “Bivalent agonists for G-protein coupled receptors” (priority 1996, dated 2002):
At least one peptide structure holds a part that was inferred or is arguable (an end, a ring closure or a residue). At least one structure is not confirmed: it was looked up by name or label, or the drawing left a doubt. Positions of bridges follow the written chain, without caps; N, C: chain ends. Non-standard residues stand in square brackets, D forms with d. Residues, ends and D or L forms follow the SMILES beside them. Chains are numbered I, II in the order given. No end group written: not given here. Ahx = NCCCCCC(=O)O

By UniProt entry, the sequences of proteins in these tests, tags left out. Where a name states a change or a piece, a line headed by the entry shows the natural chain unless it says otherwise.
UniProt P21729: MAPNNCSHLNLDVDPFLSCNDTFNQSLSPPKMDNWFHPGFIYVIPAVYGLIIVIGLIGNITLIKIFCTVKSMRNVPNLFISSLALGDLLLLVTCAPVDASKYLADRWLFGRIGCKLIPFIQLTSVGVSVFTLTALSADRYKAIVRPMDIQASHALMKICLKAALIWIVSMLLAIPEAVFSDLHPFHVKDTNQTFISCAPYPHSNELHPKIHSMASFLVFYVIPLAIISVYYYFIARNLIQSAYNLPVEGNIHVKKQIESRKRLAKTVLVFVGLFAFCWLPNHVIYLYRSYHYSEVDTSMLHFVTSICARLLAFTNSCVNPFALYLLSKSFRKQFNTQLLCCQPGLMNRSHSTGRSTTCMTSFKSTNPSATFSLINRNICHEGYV

Biological target: T1, bombesin receptor (Mus musculus, UniProt P21729)
T1 construct: transfected with a plasmid that contained the bombesin receptor coding region; expressed in transfected cells; host or cells: Xenopus laevis melanophores, electroporated with pJG3.6BR
Experiment: Frog melanocyte assay, pigment dispersion in melanophores transfected with bombesin receptor plasmid
Format: cell-based
Details: for EC50: read-out: EC50 of pigment dispersion, t=30 min, FIG. 7

| Compound | EC50 of dimer lower than monomer (fold) | EC50 |
| --- | --- | --- |
| I: CKKKKKKKKKKKKKKKKKKKK[Ahx]GGGQQRLGNQWAVGHLM-NH2 / II: CKKKKKKKKKKKKKKKKKKKK[Ahx]GGGQQRLGNQWAVGHLM-NH2 (disulfide I:1-II:1; C-terminus assumed) [bombesin dimer] | approximately 5 fold | 0.0234 ± 0.0056 µM |
| CSCC[C@H](NC(=O)[C@H](CC(C)C)NC(=O)[C@H](Cc1c[nH]cn1)NC(=O)CNC(=O)[C@@H](NC(=O)[C@H](C)NC(=O)[C@H](Cc1c[nH]c2ccccc12)NC(=O)[C@H](CCC(N)=O)NC(=O)[C@H](CC(N)=O)NC(=O)CNC(=O)[C@H](CC(C)C)NC(=O)[C@H](CCCNC(=N)N)NC(=O)[C@H](CCC(N)=O)NC(=O)[C@H](CCC(N)=O)NC(=O)CNC(=O)CNC(=O)CNC(=O)CCCCCNC(=O)[C@H](CCCCN)NC(=O)[C@H](CCCCN)NC(=O)[C@H](CCCCN)NC(=O)[C@H](CCCCN)NC(=O)[C@H](CCCCN)NC(=O)[C@H](CCCCN)NC(=O)[C@H](CCCCN)NC(=O)[C@H](CCCCN)NC(=O)[C@H](CCCCN)NC(=O)[C@H](CCCCN)NC(=O)[C@H](CCCCN)NC(=O)[C@H](CCCCN)NC(=O)[C@H](CCCCN)NC(=O)[C@H](CCCCN)NC(=O)[C@H](CCCCN)NC(=O)[C@H](CCCCN)NC(=O)[C@H](CCCCN)NC(=O)[C@H](CCCCN)NC(=O)[C@H](CCCCN)NC(=O)[C@@H](N)CCCCN)C(C)C)C(N)=O [bombesin monomer] (H-KKKKKKKKKKKKKKKKKKKK[Ahx]GGGQQRLGNQWAVGHLM-NH2) |  | 0.11 ± 0.009 µM |
